The data set in a line: peptide synthesis. The following applies: late stage modification step.

“[[(ε-NHCO-PEG1100)8(α-NH2·HCl)8][Lys]8[Lys]4[Lys]2[Lys]-CONH—CH2—CH2—S-]2MAL-PEG3-NHCO-PEG24-CONH-PEG4-(PhTzMe)” showed a step yield of 95%.

The values above are taken from patent US20240293588A1 (Starpharma Pty Ltd, priority 2020, published 2024).
